Paper PMC11291266
These are yes or no findings as the source states them, for the method shown. In cells and extracts the contact can be indirect. These calls come from enrichment with a bait or labelling near it, and not all partners need be listed.

Sequences of proteins named here, by UniProt entry; tags and fusion partners are left off.
UniProt Q9BSU1: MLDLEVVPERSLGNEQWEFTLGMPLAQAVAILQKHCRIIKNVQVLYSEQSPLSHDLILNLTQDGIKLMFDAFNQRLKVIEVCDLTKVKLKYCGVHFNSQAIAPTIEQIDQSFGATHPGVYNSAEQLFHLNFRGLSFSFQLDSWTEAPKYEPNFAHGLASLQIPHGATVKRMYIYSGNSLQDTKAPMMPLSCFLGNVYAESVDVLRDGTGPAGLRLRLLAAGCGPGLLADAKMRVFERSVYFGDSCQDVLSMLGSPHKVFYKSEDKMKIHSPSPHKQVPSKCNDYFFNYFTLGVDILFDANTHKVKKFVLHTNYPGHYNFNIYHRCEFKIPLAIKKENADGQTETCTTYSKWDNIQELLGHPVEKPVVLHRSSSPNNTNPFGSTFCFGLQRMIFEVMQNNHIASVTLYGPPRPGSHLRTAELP
UniProt Q9H6U6: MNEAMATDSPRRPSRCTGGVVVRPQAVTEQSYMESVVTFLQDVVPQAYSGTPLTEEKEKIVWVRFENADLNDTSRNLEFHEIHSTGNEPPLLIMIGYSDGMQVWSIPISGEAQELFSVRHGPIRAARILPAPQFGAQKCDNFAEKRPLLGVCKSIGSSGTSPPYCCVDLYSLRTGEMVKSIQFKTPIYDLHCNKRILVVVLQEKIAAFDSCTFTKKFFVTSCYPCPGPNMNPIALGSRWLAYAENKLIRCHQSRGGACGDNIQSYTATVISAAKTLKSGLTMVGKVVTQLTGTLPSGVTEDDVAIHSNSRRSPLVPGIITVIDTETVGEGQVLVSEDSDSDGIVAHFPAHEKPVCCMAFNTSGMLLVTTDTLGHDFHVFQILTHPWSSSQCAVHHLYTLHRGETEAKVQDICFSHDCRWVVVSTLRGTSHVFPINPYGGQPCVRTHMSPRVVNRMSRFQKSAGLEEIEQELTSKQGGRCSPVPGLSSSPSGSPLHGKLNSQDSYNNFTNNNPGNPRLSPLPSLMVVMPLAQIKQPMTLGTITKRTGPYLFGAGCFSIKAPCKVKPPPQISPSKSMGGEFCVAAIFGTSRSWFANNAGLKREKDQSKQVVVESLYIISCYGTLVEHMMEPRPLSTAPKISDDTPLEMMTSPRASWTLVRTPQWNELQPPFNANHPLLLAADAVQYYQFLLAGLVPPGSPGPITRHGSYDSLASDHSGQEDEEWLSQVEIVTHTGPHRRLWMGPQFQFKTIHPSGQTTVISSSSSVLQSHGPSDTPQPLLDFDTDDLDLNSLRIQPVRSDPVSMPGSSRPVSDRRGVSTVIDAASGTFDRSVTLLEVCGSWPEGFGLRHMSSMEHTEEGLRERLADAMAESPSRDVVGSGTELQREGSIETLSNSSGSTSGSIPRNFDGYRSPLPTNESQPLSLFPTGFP

Target: endogenous HA-tagged MYTHO (human (endogenous in HeLa)) (UniProt Q9BSU1)
Assay: affinity purification with mass spectrometry; immunoprecipitated endogenous HA-tagged MYTHO; proteomic analysis of the precipitate

## p62/SQSTM1 (from UniProt Q13501 1-440)
  binding: binds

## endogenous BCAS3 (from UniProt Q9H6U6 1-928)
  binding: binds
